# Assay results from PubChem BioAssay AID720541 (National Center for Advancing Translational Sciences (NCATS), 2013).
# Out of some 1,300 compounds screened, about 420 (32%) were called active. Inconclusive means that the source gave no clear call. Such entries were picked first, then a sample of the others. The call rests on the fitted dose curve; in most records, active means well fitted inhibition curve with a large enough effect; inconclusive means small, poorly fitted or top-dose-only effect; inactive means no such curve, though single readings can be large or run the other way. Potencies of inconclusive entries are doubtful fits and often do not repeat.
# Molecular target: C-terminal-binding protein 1 (Homo sapiens) (UniProt Q13363)
# Experiment: qHTS for Inhibitors of the Phosphatase Activity of Eya2: Carboxyl-terminal binding protein (CtBP) Counterscreen for Cherry-picked Compounds; further: nearly all actives have a fitted effect of over 65% in size
# Conditions: purified protein-protein binding, AlphaScreen, 3 h; activity change, negative = inhibition: at 46.1 µM (top of the series)
# Outline: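 AlphaScreen using 25 nM GST-E1A with 25 nM CtBP-6xHIS; compounds at 2.5 nM–46 uM final, 2 h at room temperature, then donor/acceptor beads (20 ug/mL) for 1 h in the dark. Signal normalized to E1A peptide inhibitor (maximum inhibition) and DMSO.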
# On the % scale 0 is the no-effect control and ±100 the full control effect; potency means the concentration at half of the fitted maximal effect.
Structure (SMILES),Potency,"activity change, negative = inhibition"
O=C1NC(=O)/C(=C\c2ccc(O)cc2O)S1,"inconclusive: 16.9 µM [inhibitor, single point]",
CCOC(=O)N1CCN(S(=O)(=O)c2ccc(C(=O)NNc3nc4ccc(Cl)cc4s3)cc2)CC1,,inactive: -11.8%
COc1ccc2c(CC(=O)OCC(=O)Nc3ccccc3[N+](=O)[O-])coc2c1,"inconclusive: 16.9 µM [inhibitor, single point]",
Nc1ccc2c(c1)C(=O)c1cc(N)c(Cl)cc1-2,,inactive: -15.7%
CCOC(=O)c1c(C)[nH]c(C)c1C(=O)COC(=O)CSc1ccc(C)cc1,"inconclusive: 15.1 µM [inhibitor, single point]",
CCOC(=O)c1c(NC(=O)COC(=O)c2ccc(O)cc2)sc(C(=O)N(C)C)c1C,"inconclusive: 13.5 µM [inhibitor, partial curve]",
Cc1cccc(NC(=O)COC(=O)c2cccc3c2C(=O)c2ccccc2C3=O)c1C,,inactive: -11.7%
CN=c1scc(C)n1/N=C/c1ccc2c(c1)OCO2,"inconclusive: 10.7 µM [inhibitor, partial curve]",
N#C/C(=C\C1=C(N2CCOCC2)C(=C\c2ccccc2)/CC1)C(=O)Nc1ccccc1F,"inconclusive: 2.69 µM [inhibitor, partial curve]",
CCn1cc(C(=O)O)c(=O)c2cc(F)c(N3CCN(C(=S)NC(=O)c4ccc(Br)cc4)CC3)cc21,"inconclusive: 15.1 µM [inhibitor, single point]",
COc1ccc(C2CC(c3ccccc3OC(=O)/C=C/c3ccccc3)=NN2C(C)=O)cc1 (stereo not drawn),active: 1.69 µM,
COc1cc2c(cc1OC)/C(=C/C(=O)c1ccc(NC(C)=O)cc1)NCC2,"inconclusive: 15.1 µM [inhibitor, partial curve]",
O=c1[nH]c2ccccc2c2cn(-c3ccccc3)nc12,"inconclusive: 12 µM [inhibitor, partial curve]",
O=C(O)c1ccccc1NC(c1ccccc1)c1ccc2cccnc2c1O (stereo not drawn),active: 1.9 µM,
CN(C)S(=O)(=O)c1cccc(-c2csc(=Nc3ccccc3)n2CCCN2CCOCC2)c1,"inconclusive: 12 µM [inhibitor, single point]",
CCOC(=O)N1CCN(C(=O)CSc2nc3c(cnn3-c3ccc(Cl)cc3)c(=O)[nH]2)CC1,"inconclusive: 15.1 µM [inhibitor, single point]",
O=C1NC(=O)/C(=C\c2ccccc2OCc2cccc([N+](=O)[O-])c2)N1,,inactive: -13%
Cc1ccc(O)c(C(=O)c2cnc3c(c2)COc2ccc(C)cc2-3)c1,"inconclusive: 16.9 µM [inhibitor, single point]",
CCOC(=O)C1=C(COC(=O)CCOc2ccccc2)NC(=O)NC1C (stereo not drawn),,inactive: 4.16%
Cc1cc2ccccc2n1CCNC(=O)c1cccs1,"inconclusive: 15.1 µM [inhibitor, partial curve]",
CCCc1nc(N2CCN(C)CC2)c2sc(=S)n(-c3ccccc3)c2n1,,inactive: -5.86%
O=C(NC(=S)Nc1ccccc1N1CCCCC1)c1ccco1,,inactive: -23%
N#CC1=C2N=C(N)c3ccccc3N2C2=C(C(=O)CCC2)C1c1cccc(Cl)c1 (stereo not drawn),"inconclusive: 16.9 µM [inhibitor, single point]",
Cc1c(C(=O)Nc2ccc(Nc3ccccc3)cc2)cccc1[N+](=O)[O-],"inconclusive: 16.9 µM [inhibitor, single point]",
O=C(Nc1ccc(Nc2ccccc2)cc1)c1ccc(Cl)cc1[N+](=O)[O-],,inactive: -12.6%

Structure (SMILES),Potency,"activity change, negative = inhibition"
O=C1/C(=C/c2ccco2)SC(=S)N1c1cccnc1,active: 15.1 µM,
CCOc1ccc(N(C)Cc2cc(=O)oc3ccc(OCC)cc23)cc1,"inconclusive: 8.49 µM [inhibitor, partial curve]",
COc1ccc2ccccc2c1C=NN1CCCCC1,"inconclusive: 13.5 µM [inhibitor, partial curve]",
O=C(CCN1C(=O)/C(=C/c2ccc(F)cc2)SC1=S)Nc1cc([N+](=O)[O-])ccc1O,"inconclusive: 13.5 µM [inhibitor, partial curve]",
Cc1cc(C)n2nc(C(=O)NC3CCCc4ccccc43)nc2n1 (stereo not drawn),,inactive: -1.35%
CC(=O)c1ccc(OC(=O)CCNC(=O)c2ccccc2)cc1,"inconclusive: 30.1 µM [inhibitor, single point]",
CSc1cccc(NC(=O)CCCn2c(=O)c3cccn3c3cccnc32)c1,"inconclusive: 7.57 µM [inhibitor, partial curve]",
O=C(CSc1ccc(-c2ccccn2)nn1)N1CCCC1,active: 8.49 µM,
O=C(O)c1c2c(nc3ccccc13)/C(=C/c1ccc(O)cc1)CC2,"inconclusive: 13.5 µM [inhibitor, partial curve]",
O=c1[nH]c(/C=C\c2cccc(Cl)c2)nc(O)c1[N+](=O)[O-],"inconclusive: 15.1 µM [inhibitor, partial curve]",
CCn1c2ccccc2c2cc(NC(=O)COC(=O)c3ccc(NC(=O)CC#N)cc3)ccc21,,inactive: -2.9%
Brc1ccc(CSc2ccc3nnc(-c4cccnc4)n3n2)cc1,,inactive: -31.1%
CCCSC1=N/C(=C\C=C\c2ccco2)C(=O)S1,"inconclusive: 16.9 µM [inhibitor, single point]",
O=C(Oc1ccc(C(=S)N2CCOCC2)cc1)c1cccc(Cl)c1,"inconclusive: 30.1 µM [inhibitor, single point]",
COc1ccc(NCc2cc3cc(OC)ccc3[nH]c2=O)cc1,"inconclusive: 13.5 µM [inhibitor, partial curve]",
COc1cc(/C=C2\SC(=S)N(Nc3ccccc3)C2=O)ccc1O,"inconclusive: 15.1 µM [inhibitor, partial curve]",
Cc1ccc(Nc2nnc(SCC(=O)c3c(N)n(C4CC4)c(=O)[nH]c3=O)s2)cc1C,,inactive: -9.32%
O=C(Nc1nccs1)c1ccc(NC(=O)C2CC=CCC2C(=O)O)cc1 (stereo not drawn),"inconclusive: 13.5 µM [inhibitor, partial curve]",
Cc1ccc(C(=O)Nc2ccccc2C(=O)O)cc1S(=O)(=O)Nc1ccccc1,"inconclusive: 21.3 µM [inhibitor, single point]",
Cc1ccc(SCc2nc(N)nc(Nc3ccccc3C)n2)cc1C,,inactive: -16.7%
CN(C)c1ccc(C(CNS(=O)(=O)c2ccc(F)c(F)c2)c2c[nH]c3ccccc23)cc1 (stereo not drawn),,inactive: -19.8%
COc1cccc(NC(=O)c2cc3ccccc3o/c2=N\O)c1,"inconclusive: 15.1 µM [inhibitor, partial curve]",
CC1C=CCC2C(=O)N(c3ccc(OC(=O)c4ccco4)cc3)C(=O)C12 (stereo not drawn),"inconclusive: 30.1 µM [inhibitor, single point]",
COc1ccc(-c2cn(Cc3ccc4c(c3)C(=O)c3ccccc3C4=O)nn2)cc1,,inactive: -4.47%
O=C(Oc1cncc(Cl)c1)c1sccc1Cl,,inactive: -9.79%

Structure (SMILES),Potency,"activity change, negative = inhibition"
Cc1ccc(C(O)c2ncc(-c3ccc4ccccc4c3)[nH]2)cc1F (stereo not drawn),,inactive: -28.8%
CC1(C)CC(Nc2ccc(Nc3ccccc3)cc2)CC(C)(C)N1,"inconclusive: 15.1 µM [inhibitor, partial curve]",
O=S(=O)(O)c1ccc2c(N=Nc3ccc(S(=O)(=O)O)c4ccccc34)c(O)c(S(=O)(=O)O)cc2c1,active: 9.53 µM,
CCn1c(C)cc(/C=C2/SC(=O)N(C(C)C(=O)OC)C2=O)c1C (stereo not drawn),,inactive: -12.7%
COc1cccc2c1C(=O)/C(=C/c1ccc(N(C)C)cc1)C2,active: 4.78 µM,
O=C1C=C(N2CCOCC2)c2ccccc2C1=O,"inconclusive: 5.36 µM [inhibitor, full curve]",
CCCc1ccc(C#N)c(SC2CC(=O)N(c3ccc(OC)cc3)C2=O)n1 (stereo not drawn),,inactive: -12.5%
Cc1c(CCO)c(=O)n(-c2ccccc2)n1S(=O)(=O)c1c(Cl)cc(Cl)cc1Cl,,inactive: -25.3%
CCOc1ccc2[nH]cc(C(=O)NCc3ccccc3)c(=O)c2c1,"inconclusive: 8.49 µM [inhibitor, partial curve]",
COc1ccc(Nc2nc(C(C)(C)C)nc3c2nnn3Cc2ccccc2Cl)cc1OC,,inactive: -19%
COc1ccc(Br)cc1CNC(=O)c1ccc2c(c1)N(C)CCS2,,inactive: -24.5%
CN1N/C(=C\c2ccccc2)N=C2C(=O)N(C)C(=O)N=C21,"inconclusive: 2.13 µM [inhibitor, partial curve]",
C=CCN1C(=O)/C(=C\c2ccc(OC(=O)c3ccco3)c(OC)c2)SC1=S,"inconclusive: 13.5 µM [inhibitor, partial curve]",
COc1cccc(C(=O)Nc2ccc3[nH]c(=O)[nH]c3c2)c1OC,"inconclusive: 19 µM [inhibitor, partial curve]",
Cn1nc(C(=O)Nc2nnc(C3CC3)s2)c2ccccc2c1=O,"inconclusive: 16.9 µM [inhibitor, partial curve]",
COCCN1CCn2c(nc3cc(Nc4nnc(C)c5ccccc45)ccc32)C1,"inconclusive: 16.9 µM [inhibitor, partial curve]",
CCCc1cc(=O)[nH]c(SCC(=O)Nc2ccc(C)cc2)n1,,inactive: 2.2%
CCOC(=O)NNc1nncc2ccccc12,,inactive: 10.1%
CCOc1ccc2[nH]c3nc(SCC(=O)NC4CCCC4)nnc3c2c1,,inactive: 23.6%
CN(C)c1ccc(C(=C2C=CC(=[N+](C)C)C=C2)c2ccc(N(C)C)cc2)cc1,active: 3.79 µM,
COc1ccc(Cl)cc1NC(=O)C(C)N1CCc2ccccc21 (stereo not drawn),"inconclusive: 15.1 µM [inhibitor, single point]",
O=C(O)c1cccc2cccc(-c3c4ccc(=O)c(O)c-4oc4c(O)c(O)ccc34)c12,"inconclusive: 15.1 µM [inhibitor, single point]",
COc1ccc(N2c3ccccc3CN(Cc3ccccc3)CC2Cc2cc(OC)c(OC)c(OC)c2)cc1 (stereo not drawn),"inconclusive: 12 µM [inhibitor, partial curve]",

# Some of the entries above in another layout:
Structure (SMILES)	Potency	activity change, negative = inhibition
CN(C)c1ccc(C(=C2C=CC(=[N+](C)C)C=C2)c2ccc(N(C)C)cc2)cc1	active: 3.79 µM	
COc1ccc(Cl)cc1NC(=O)C(C)N1CCc2ccccc21 (stereo not drawn)	inconclusive: 15.1 µM [inhibitor, single point]	
O=C(O)c1cccc2cccc(-c3c4ccc(=O)c(O)c-4oc4c(O)c(O)ccc34)c12	inconclusive: 15.1 µM [inhibitor, single point]	

# One compound at a time, as listed above:
# Nc1ccc2c(c1)C(=O)c1cc(N)c(Cl)cc1-2 is listed as activity change, negative = inhibition: inactive: -15.7%
# CCn1cc(C(=O)O)c(=O)c2cc(F)c(N3CCN(C(=S)NC(=O)c4ccc(Br)cc4)CC3)cc21 is listed as Potency: inconclusive: 15.1 µM [inhibitor, single point]
